Among the data in publication doi:10.1101/2023.07.22.550030 are binding values, retold here.

Protein sequences, listed by entry. Tags and fused reporters are not part of them. Lines headed by an entry give the natural chain unless they say otherwise; changes in a name come on top. Chains listed by the source or under a name are the forms on record and can include a tag or linker.
UniProt Q9BUJ2: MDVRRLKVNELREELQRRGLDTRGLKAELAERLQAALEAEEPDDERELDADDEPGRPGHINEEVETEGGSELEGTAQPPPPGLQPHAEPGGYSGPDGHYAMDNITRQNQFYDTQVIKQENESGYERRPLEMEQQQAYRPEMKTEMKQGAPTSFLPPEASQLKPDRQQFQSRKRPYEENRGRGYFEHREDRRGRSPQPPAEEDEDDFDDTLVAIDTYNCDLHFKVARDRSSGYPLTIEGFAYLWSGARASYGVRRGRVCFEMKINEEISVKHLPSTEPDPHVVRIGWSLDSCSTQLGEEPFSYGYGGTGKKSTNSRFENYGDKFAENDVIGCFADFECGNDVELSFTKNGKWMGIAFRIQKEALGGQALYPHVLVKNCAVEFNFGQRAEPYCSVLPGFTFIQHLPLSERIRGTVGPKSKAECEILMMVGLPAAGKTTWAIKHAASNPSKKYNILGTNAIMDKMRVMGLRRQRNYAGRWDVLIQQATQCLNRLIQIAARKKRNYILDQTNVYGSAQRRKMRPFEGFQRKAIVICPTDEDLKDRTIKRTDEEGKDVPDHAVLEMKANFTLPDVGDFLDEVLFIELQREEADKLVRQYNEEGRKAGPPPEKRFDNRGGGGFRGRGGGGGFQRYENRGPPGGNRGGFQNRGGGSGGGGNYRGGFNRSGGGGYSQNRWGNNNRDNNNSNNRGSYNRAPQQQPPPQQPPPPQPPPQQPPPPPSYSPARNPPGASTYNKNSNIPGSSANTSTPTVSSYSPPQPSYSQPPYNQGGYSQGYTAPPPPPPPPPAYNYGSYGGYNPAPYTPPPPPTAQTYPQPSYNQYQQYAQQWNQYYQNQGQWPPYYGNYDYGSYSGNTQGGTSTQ
FLAG-tagged hnRNPUL1 ΔWA (Walker A motif mutant) (Q9BUJ2, form named): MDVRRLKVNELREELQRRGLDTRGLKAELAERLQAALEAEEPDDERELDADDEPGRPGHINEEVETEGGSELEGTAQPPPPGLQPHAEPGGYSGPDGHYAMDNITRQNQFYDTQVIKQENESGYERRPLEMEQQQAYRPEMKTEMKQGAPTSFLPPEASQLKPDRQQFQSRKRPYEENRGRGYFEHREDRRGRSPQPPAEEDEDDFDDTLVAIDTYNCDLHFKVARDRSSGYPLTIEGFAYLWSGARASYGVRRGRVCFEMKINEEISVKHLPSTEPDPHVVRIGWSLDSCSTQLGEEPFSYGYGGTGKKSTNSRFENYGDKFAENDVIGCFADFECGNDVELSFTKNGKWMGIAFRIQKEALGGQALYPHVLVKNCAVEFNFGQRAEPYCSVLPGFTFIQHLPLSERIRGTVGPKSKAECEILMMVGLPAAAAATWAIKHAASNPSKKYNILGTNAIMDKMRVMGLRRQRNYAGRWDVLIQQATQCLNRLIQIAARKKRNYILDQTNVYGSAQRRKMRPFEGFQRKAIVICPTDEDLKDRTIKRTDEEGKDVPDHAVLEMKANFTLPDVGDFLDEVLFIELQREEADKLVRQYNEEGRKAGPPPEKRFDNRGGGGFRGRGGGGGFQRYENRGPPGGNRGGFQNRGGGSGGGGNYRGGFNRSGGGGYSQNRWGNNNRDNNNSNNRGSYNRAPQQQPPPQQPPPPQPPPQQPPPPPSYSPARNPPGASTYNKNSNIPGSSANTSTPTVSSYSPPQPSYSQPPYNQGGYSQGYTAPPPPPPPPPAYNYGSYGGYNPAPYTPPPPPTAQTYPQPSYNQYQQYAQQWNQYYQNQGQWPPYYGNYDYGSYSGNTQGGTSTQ
UniProt Q01844: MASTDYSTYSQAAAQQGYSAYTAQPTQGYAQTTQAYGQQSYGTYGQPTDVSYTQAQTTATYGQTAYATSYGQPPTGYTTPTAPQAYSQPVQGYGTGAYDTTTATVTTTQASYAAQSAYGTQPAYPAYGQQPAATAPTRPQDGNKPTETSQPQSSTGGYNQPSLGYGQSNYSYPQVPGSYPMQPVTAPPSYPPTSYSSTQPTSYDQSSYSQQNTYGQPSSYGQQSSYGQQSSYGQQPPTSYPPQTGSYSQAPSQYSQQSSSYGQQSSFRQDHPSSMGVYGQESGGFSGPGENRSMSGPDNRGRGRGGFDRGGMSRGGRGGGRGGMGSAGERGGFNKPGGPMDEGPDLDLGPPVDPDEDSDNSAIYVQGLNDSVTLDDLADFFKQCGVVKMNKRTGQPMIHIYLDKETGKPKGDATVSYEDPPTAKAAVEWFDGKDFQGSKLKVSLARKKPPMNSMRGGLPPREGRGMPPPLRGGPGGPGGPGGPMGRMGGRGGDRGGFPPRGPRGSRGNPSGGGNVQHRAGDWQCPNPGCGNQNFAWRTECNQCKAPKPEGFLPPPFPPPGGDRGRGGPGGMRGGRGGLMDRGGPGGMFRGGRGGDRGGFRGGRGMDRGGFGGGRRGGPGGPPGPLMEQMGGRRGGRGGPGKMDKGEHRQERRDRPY
UniProt Q5TA45: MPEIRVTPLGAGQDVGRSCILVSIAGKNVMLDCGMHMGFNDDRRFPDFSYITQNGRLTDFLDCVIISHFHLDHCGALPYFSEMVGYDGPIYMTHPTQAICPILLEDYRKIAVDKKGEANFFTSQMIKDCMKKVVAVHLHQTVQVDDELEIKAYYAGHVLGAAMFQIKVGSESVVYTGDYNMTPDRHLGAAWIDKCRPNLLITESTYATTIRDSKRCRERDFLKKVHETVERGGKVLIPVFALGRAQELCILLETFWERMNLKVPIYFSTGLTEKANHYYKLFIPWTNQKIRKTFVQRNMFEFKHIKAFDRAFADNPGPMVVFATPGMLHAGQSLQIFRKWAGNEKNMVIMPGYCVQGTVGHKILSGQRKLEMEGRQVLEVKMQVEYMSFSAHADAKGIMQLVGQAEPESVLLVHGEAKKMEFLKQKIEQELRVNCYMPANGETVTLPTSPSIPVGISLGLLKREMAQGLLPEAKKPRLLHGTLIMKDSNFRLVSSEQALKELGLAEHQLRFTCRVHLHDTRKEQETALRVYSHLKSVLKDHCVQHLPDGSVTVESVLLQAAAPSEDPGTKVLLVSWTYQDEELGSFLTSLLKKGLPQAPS
UniProt P35637: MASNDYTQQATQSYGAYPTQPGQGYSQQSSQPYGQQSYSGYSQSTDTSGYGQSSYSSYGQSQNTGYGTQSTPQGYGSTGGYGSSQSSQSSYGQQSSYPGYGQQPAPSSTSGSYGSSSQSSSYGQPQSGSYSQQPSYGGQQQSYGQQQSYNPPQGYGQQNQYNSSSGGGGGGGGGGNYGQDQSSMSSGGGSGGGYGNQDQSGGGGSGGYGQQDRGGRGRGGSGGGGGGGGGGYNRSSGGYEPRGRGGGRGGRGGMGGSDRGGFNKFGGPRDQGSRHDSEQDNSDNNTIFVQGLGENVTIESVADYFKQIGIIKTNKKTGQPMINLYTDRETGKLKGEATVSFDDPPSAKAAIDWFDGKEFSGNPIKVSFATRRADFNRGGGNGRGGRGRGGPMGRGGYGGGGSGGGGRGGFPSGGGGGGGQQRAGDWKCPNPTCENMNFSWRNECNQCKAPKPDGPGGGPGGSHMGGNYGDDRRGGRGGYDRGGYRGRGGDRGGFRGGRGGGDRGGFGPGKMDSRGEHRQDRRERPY

No constants are given. Whether binding was seen depends on the method and setting. In cells and extracts the contact can be indirect. Some results given as binding are weak or reduced against the parent protein; the word gives no strength.

In assay [1] the target is FLAG-tagged hnRNPUL1 ΔWA (Walker A motif mutant) (human) (UniProt Q9BUJ2). As to the kind of experiment: co-IP.
Assay [2] addresses FLAG-tagged hnRNPUL1 WT (full length) (human) (UniProt Q9BUJ2). As to the kind of experiment: co-IP.

For the substance EWSR1 (from UniProt Q01844 1-656), the binding entry in assay [1] and in assay [2] was “binds” throughout.

Take “INTS11 (from UniProt Q5TA45 1-600) (enzyme)”: the binding entry in assay [1] and in assay [2] was “binds” in each case.

As for FUS (from UniProt P35637 1-526), the binding result in assay [1] and in assay [2] was “binds” in each case.
